Experimental data published in the supplement of paper PMC7877785.
± gives the uncertainty stated by the source. Many entries were measured with a wide error.

Test: self-splicing fitness, log relative to wild type (ln ratio); higher = more splicing; Tetrahymena group I intron in knt gene, E. coli kanamycin selection, DiMSum; sequences stand for … in CUCUCU…GGAGGGAAAAGUUAUCAGGCAUGCACCUGGUAGCUAGUCUUUAAACCAAUAGAUUGCAUCGGUUUAAAAGGCAAGACCGUCAAAUUGCGGGAAAGGGGUCAACAGCCGUUCAGUACCAAGUCUCAGGGGAAACUUUGAGAUGGCCUUGCAAAGGGUAUGGUAAUAAGCUGACGGACAUGGUCCUAACCACGCAGCCAAGUCCUAAGUCAACAGAUCUUCUGUUGAUAUGGAUGCAGUUCACAGACUAAAUGUCGGUCGGGGAAGAUGUAUUCUUCUCAUAAGAUAUAGUCGGACCUCUCCUUAAUGGGAGCUAGCGGAUGAAGUGAUGCAACACUGGAGCCGCUGGGAACUAAUUUGUAUGCGAAAGUAUAUUGAUUAGUUUUGGAGUACUCGUGGUCG
How it was run: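 Six replicate transformations of E. coli BL21(DE3) with a pET-22b(+) library were grown overnight at 37°C or 30°C. The library randomised all eight P1ex-region intron nucleotides, the intron lying in the knt kanamycin-resistance gene, and plates were LB agar with or without 25 μg/mL kanamycin plus 100 μg/mL carbenicillin, 50 μM IPTG and 0.2% rhamnose. Pooled colonies were amplicon-sequenced on an Illumina HiSeq 2500, and fitness is the DiMSum error-weighted combination of wild-type-normalised replicate fold changes, kanamycin versus none.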

AGUUAGCAAUAUUACGGAAC
self-splicing fitness (ln) (30 °C): -3.92 ± 0.6

UCAGAGCAAUAUUACGACUA
self-splicing fitness (ln) (30 °C): -1.36 ± 0.64 | self-splicing fitness (ln) (37 °C): -0.982 ± 0.84

UUUAAGCAAUAUUACGAGUC
self-splicing fitness (ln) (30 °C): -3.31 ± 0.6

GCCAAGCAAUAUUACGCAUA
self-splicing fitness (ln) (30 °C): -1.3 ± 0.09 | self-splicing fitness (ln) (37 °C): -0.709 ± 0.085

CAAUAGCAAUAUUACGCACC
self-splicing fitness (ln) (37 °C): -1.98 ± 0.51

AAUGAGCAAUAUUACGGCAA
self-splicing fitness (ln) (30 °C): -2.55 ± 0.34 | self-splicing fitness (ln) (37 °C): -1.85 ± 0.35

AGACAGCAAUAUUACGGAAC
self-splicing fitness (ln) (30 °C): -4.87 ± 0.51

AGUGAGCAAUAUUACGUAUG
self-splicing fitness (ln) (30 °C): -4.46 ± 0.59

GUGCAGCAAUAUUACGUACA
self-splicing fitness (ln) (30 °C): -3.1 ± 0.65

AUGGAGCAAUAUUACGAUUC
self-splicing fitness (ln) (37 °C): -3.09 ± 0.6

CUUGAGCAAUAUUACGCCGC
self-splicing fitness (ln) (37 °C): -1.83 ± 0.69

UGUCAGCAAUAUUACGAUGC
self-splicing fitness (ln) (37 °C): -1.51 ± 0.51

GGGGAGCAAUAUUACGGAUC
self-splicing fitness (ln) (30 °C): -1.4 ± 1.2 | self-splicing fitness (ln) (37 °C): 0.321 ± 1.2

ACCGAGCAAUAUUACGCUAC
self-splicing fitness (ln) (30 °C): -3.58 ± 0.19 | self-splicing fitness (ln) (37 °C): -2.86 ± 0.24

CCGAAGCAAUAUUACGGGCC
self-splicing fitness (ln) (30 °C): -3.66 ± 1 | self-splicing fitness (ln) (37 °C): -3.18 ± 1

AUACAGCAAUAUUACGUGCG
self-splicing fitness (ln) (30 °C): -0.886 ± 0.081 | self-splicing fitness (ln) (37 °C): -0.3 ± 0.091

GACGAGCAAUAUUACGCAUC
self-splicing fitness (ln) (30 °C): -4.16 ± 1

UUUGAGCAAUAUUACGCCGU
self-splicing fitness (ln) (30 °C): -1.32 ± 0.82 | self-splicing fitness (ln) (37 °C): -1.88 ± 1.2

CUAUAGCAAUAUUACGUAAC
self-splicing fitness (ln) (37 °C): -3.08 ± 1

AAAUAGCAAUAUUACGAUGU
self-splicing fitness (ln) (30 °C): -1.21 ± 0.078 | self-splicing fitness (ln) (37 °C): -0.875 ± 0.089

GUGUAGCAAUAUUACGCAGC
self-splicing fitness (ln) (37 °C): -2.62 ± 0.55

UAAGAGCAAUAUUACGUUGG
self-splicing fitness (ln) (37 °C): -3.35 ± 0.6

UAUGAGCAAUAUUACGCGGC
self-splicing fitness (ln) (30 °C): -4.02 ± 0.29 | self-splicing fitness (ln) (37 °C): -1.8 ± 0.25

UUUGAGCAAUAUUACGAUAU
self-splicing fitness (ln) (30 °C): -4.12 ± 0.59

GGUCAGCAAUAUUACGGAGA
self-splicing fitness (ln) (30 °C): -4.32 ± 0.6

CUGCAGCAAUAUUACGUGCC
self-splicing fitness (ln) (30 °C): -2.23 ± 0.21 | self-splicing fitness (ln) (37 °C): -2.26 ± 0.26

UGUCAGCAAUAUUACGUCUG
self-splicing fitness (ln) (30 °C): -0.693 ± 0.1 | self-splicing fitness (ln) (37 °C): -0.104 ± 0.11

GCGGAGCAAUAUUACGUAUC
self-splicing fitness (ln) (37 °C): -2.07 ± 0.67

CUUUAGCAAUAUUACGGAGA
self-splicing fitness (ln) (37 °C): -2.1 ± 0.53

CACGAGCAAUAUUACGCGGC
self-splicing fitness (ln) (30 °C): -4.86 ± 0.59

GUCGAGCAAUAUUACGAAAU
self-splicing fitness (ln) (30 °C): -0.828 ± 1

UCCAAGCAAUAUUACGUACU
self-splicing fitness (ln) (30 °C): -3.94 ± 0.39 | self-splicing fitness (ln) (37 °C): -2.54 ± 0.24

UCCGAGCAAUAUUACGGGAU
self-splicing fitness (ln) (37 °C): -2.77 ± 1.1

CUCGAGCAAUAUUACGUGUU
self-splicing fitness (ln) (30 °C): -2.06 ± 0.16 | self-splicing fitness (ln) (37 °C): -1.97 ± 0.19

UGGUAGCAAUAUUACGUUGC
self-splicing fitness (ln) (30 °C): -3.12 ± 0.53

CUCUAGCAAUAUUACGACUU
self-splicing fitness (ln) (30 °C): -4.08 ± 0.74

GAGGAGCAAUAUUACGAAAG
self-splicing fitness (ln) (30 °C): -3.68 ± 0.52 | self-splicing fitness (ln) (37 °C): -2.01 ± 0.33

CCCGAGCAAUAUUACGGCGC
self-splicing fitness (ln) (30 °C): -3.48 ± 0.79 | self-splicing fitness (ln) (37 °C): -1.68 ± 0.56

GGAUAGCAAUAUUACGACCC
self-splicing fitness (ln) (37 °C): -2.29 ± 1.1

GGCGAGCAAUAUUACGGGGG
self-splicing fitness (ln) (30 °C): -3.33 ± 0.2 | self-splicing fitness (ln) (37 °C): -2.64 ± 0.28

GAAGAGCAAUAUUACGCGAU
self-splicing fitness (ln) (30 °C): -3.39 ± 0.63

GCCGAGCAAUAUUACGGCUU
self-splicing fitness (ln) (30 °C): -4.87 ± 1 | self-splicing fitness (ln) (37 °C): -2.08 ± 0.41

AUGUAGCAAUAUUACGGUAA
self-splicing fitness (ln) (30 °C): -2.15 ± 0.23 | self-splicing fitness (ln) (37 °C): -1.36 ± 0.17

GGUAAGCAAUAUUACGGUCC
self-splicing fitness (ln) (37 °C): -0.216 ± 0.52

AUGGAGCAAUAUUACGAGUG
self-splicing fitness (ln) (30 °C): -3.88 ± 1.1 | self-splicing fitness (ln) (37 °C): -2.86 ± 0.53

UAGAAGCAAUAUUACGUACC
self-splicing fitness (ln) (37 °C): -1.9 ± 0.81

CACAAGCAAUAUUACGAUCA
self-splicing fitness (ln) (30 °C): -2.43 ± 0.11 | self-splicing fitness (ln) (37 °C): -1.55 ± 0.12

AACGAGCAAUAUUACGUUCC
self-splicing fitness (ln) (30 °C): -3.09 ± 0.36 | self-splicing fitness (ln) (37 °C): -2.41 ± 0.3

AGGGAGCAAUAUUACGUUGC
self-splicing fitness (ln) (30 °C): -3.42 ± 0.6

CUUAAGCAAUAUUACGGCUU
self-splicing fitness (ln) (30 °C): -5.16 ± 0.71 | self-splicing fitness (ln) (37 °C): -3.9 ± 0.72

UGGAAGCAAUAUUACGGCGC
self-splicing fitness (ln) (30 °C): -1.23 ± 0.22 | self-splicing fitness (ln) (37 °C): -0.241 ± 0.22

GAGGAGCAAUAUUACGGAAU
self-splicing fitness (ln) (37 °C): -2.97 ± 0.54

GGAUAGCAAUAUUACGAAAG
self-splicing fitness (ln) (37 °C): -2.23 ± 0.8

AGUCAGCAAUAUUACGGAAC
self-splicing fitness (ln) (30 °C): -2.87 ± 0.15 | self-splicing fitness (ln) (37 °C): -1.89 ± 0.15

GCGGAGCAAUAUUACGUCUA
self-splicing fitness (ln) (30 °C): -1.15 ± 0.76 | self-splicing fitness (ln) (37 °C): -0.234 ± 1.4

CCCUAGCAAUAUUACGAUAC
self-splicing fitness (ln) (37 °C): -2.81 ± 0.63
